Source: article PMC4414571, “Peptides of Presenilin-1 Bind the Amyloid Precursor Protein Ectodomain and Offer a Novel and Specific Therapeutic Approach to Reduce ß-Amyloid in Alzheimer’s Disease” (PLoS ONE, 2015)
These are yes or no findings as the source states them, for the method shown.

Target: T1, biotinylated scrambled P1 (SP1)
T1 sequence (peptide, biotin at the NH2-terminus): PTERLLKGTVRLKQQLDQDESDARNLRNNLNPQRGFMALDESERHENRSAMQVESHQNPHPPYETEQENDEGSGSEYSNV
Assay: BLI; Octet RED96; biotinylated peptides loaded on streptavidin biosensors, quenched with biocytin; purified APPs (0-200 nM) or control IgG in solution; Kinetics Buffer (1X PBS, 0.002% Tween-20, 0.01% BSA), 30°C; global fit to a 1:1 model; KD = koff/kon; both purified

soluble APP (APPs), purified ectodomain of human APP 695 (domain or fragment)
binding: no binding (tested: 3.13–200 nM)
